Results reported in the supplement of paper PMC10032668.
The other results are listed elsewhere or left out. The list holds hits alone, and they repeat only in part.

Chains of the proteins cited; added tags and fusions are not shown.
EIF4G3, O43432, UniProt O43432, whole entry: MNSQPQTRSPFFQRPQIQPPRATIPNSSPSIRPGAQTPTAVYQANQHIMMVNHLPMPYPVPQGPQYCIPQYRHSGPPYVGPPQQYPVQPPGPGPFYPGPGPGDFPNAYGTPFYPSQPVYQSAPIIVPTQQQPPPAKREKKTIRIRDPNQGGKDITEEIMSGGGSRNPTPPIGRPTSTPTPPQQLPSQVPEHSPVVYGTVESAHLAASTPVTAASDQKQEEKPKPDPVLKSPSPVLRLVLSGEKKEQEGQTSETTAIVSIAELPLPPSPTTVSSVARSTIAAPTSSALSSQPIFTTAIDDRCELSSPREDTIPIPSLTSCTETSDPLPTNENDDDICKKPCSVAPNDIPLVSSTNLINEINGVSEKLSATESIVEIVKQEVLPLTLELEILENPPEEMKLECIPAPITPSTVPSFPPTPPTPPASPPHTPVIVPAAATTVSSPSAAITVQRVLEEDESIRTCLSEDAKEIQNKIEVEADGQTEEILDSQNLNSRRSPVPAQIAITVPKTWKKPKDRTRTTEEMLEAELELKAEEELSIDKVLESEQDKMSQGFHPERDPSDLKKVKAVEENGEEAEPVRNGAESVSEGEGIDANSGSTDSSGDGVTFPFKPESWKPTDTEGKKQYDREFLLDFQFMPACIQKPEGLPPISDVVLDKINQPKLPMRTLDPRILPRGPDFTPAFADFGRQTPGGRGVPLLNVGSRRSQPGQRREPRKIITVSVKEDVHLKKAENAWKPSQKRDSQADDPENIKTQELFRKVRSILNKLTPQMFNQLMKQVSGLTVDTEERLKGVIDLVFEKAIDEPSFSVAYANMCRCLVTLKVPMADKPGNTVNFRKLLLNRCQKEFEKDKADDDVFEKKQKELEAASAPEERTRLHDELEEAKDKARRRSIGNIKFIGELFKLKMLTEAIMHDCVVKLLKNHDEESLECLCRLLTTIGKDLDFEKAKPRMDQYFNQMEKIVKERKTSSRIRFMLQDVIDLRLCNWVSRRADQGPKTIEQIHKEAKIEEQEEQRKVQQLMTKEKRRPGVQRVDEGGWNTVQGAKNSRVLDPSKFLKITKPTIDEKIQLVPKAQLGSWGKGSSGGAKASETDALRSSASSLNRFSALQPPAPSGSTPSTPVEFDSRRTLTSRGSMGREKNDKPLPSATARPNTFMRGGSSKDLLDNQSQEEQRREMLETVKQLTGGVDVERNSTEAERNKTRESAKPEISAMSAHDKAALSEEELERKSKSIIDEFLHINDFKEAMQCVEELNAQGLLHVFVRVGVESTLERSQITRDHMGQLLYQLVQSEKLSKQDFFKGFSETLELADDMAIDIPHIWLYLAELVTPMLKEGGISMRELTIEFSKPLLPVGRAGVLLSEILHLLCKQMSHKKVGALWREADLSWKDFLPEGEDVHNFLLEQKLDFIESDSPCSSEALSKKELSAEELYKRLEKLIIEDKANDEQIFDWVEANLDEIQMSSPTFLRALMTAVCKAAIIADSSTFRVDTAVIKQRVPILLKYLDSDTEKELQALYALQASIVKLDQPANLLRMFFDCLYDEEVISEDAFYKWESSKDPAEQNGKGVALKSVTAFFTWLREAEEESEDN

How the values were obtained:
Experiment in all cases: PRISMA enrichment of interactor (LFQ) in peptide spot vs all other peptide spots (log2 fold change); higher = stronger / more specific binding of the interactor to the peptide
[1] = target: CKAP2L, Q8IYA6
Method: (§1)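 PRISMA: 15-aa overlapping tiles (offset 8 aa) of 60 microproteins, plus SOS1/GLUT1 control peptides, were spot-synthesized on cellulose membranes in triplicate. Membranes were incubated with benzonase-treated HEK293T lysate, and bound proteins were identified by LC-MS/MS with LFQ. Enrichment is the log2 fold change of each protein in one spot versus all other spots. Only interactors passing the significance cutoff are listed.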

[2] = target: CLPP, Q16740
Method: as §1

[3] = target: CNPY2, Q9Y2B0
Method: as §1

[4] = target: CRABP2, P29373
Method: as §1

[5] = target: CTPS1, P17812
Method: as §1

[6] = target: DERPC, P0CG12
Method: as §1

[7] = target: EIF4G3, O43432
Method: as §1

[8] = target: GLO1, Q04760
Method: as §1

[9] = target: GRB2, P62993
Method: as §1

[10] = target: H2AFV, Q71UI9
Method: as §1

[11] = target: HERC5, Q9UII4
Method: as §1

[12] = target: MRPS7, Q9Y2R9
Method: as §1

[13] = target: MYCBP2, O75592
Method: as §1

[14] = target: SH3GL1, Q99961
Method: as §1

[15] = target: YWHAG, P61981
Method: as §1

[16] = target: ZC2HC1A, Q96GY0
Method: as §1

[17] = target: CKB, P12277
Method: as §1

[18] = target: CNN3, Q15417
Method: as §1

[19] = target: COPZ1, P61923
Method: as §1

[20] = target: CPNE3, O75131
Method: as §1

[21] = target: CUL3, Q13618
Method: as §1

[22] = target: EIF2S3, P41091
Method: as §1

[23] = target: EIF3G, O75821
Method: as §1

[24] = target: ELOVL5, Q9NYP7
Method: as §1

[25] = target: ESYT1, Q9BSJ8
Method: as §1

[26] = target: HNRNPDL, O14979
Method: as §1

[27] = target: IGF2BP2, Q9Y6M1
Method: as §1

[28] = target: MAT2A, P31153
Method: as §1

[29] = target: MDN1, Q9NU22
Method: as §1

[30] = target: MRPL39, Q9NYK5
Method: as §1

[31] = target: MYH10, P35580
Method: as §1

[32] = target: NIFK, Q9BYG3
Method: as §1

[33] = target: PAK1IP1, Q9NWT1
Method: as §1

[34] = target: PFDN6, O15212
Method: as §1

[35] = target: PLAA, Q9Y263
Method: as §1

[36] = target: PRPF38A, Q8NAV1
Method: as §1

[37] = target: SPTLC1, O15269
Method: as §1

[38] = target: SUGP2, Q8IX01
Method: as §1

[39] = target: TARS, P26639
Method: as §1

[40] = target: UCK2, Q9BZX2
Method: as §1

[41] = target: CLASP2, O75122
Method: as §1

[42] = target: DHX15, O43143
Method: as §1

[43] = target: DHX37, Q8IY37
Method: as §1

[44] = target: DNM1L, O00429
Method: as §1

[45] = target: FADS2, O95864
Method: as §1

[46] = target: MRPS9, P82933
Method: as §1

[47] = target: MYO1D, O94832
Method: as §1

[48] = target: SF3B2, Q13435
Method: as §1

[49] = target: SKP1, P63208
Method: as §1

[50] = target: SRSF7, Q16629
Method: as §1

[51] = target: VCL, P18206
Method: as §1

In the case of MARPPPLPGLVGRRN [TUG1], the “PRISMA enrichment of interactor (log2)” value [1] is reported as 3.96, the “PRISMA enrichment of interactor (log2)” value [2] is reported as 4.52 and the “PRISMA enrichment of interactor (log2)” value [3] is reported as 4.57. For the same binder, the “PRISMA enrichment of interactor (log2)” value [4] was 3.74, the “PRISMA enrichment of interactor (log2)” value [5] was 6.57 and the “PRISMA enrichment of interactor (log2)” value [6] was 4.13. The “PRISMA enrichment of interactor (log2)” value [7] was 4.56, the “PRISMA enrichment of interactor (log2)” value [8] was 4.89 and the “PRISMA enrichment of interactor (log2)” value [9] was 5.49. The “PRISMA enrichment of interactor (log2)” value [10] was 5.73, the “PRISMA enrichment of interactor (log2)” value [11] was 5.84 and the “PRISMA enrichment of interactor (log2)” value [12] was 5.83. The “PRISMA enrichment of interactor (log2)” value [13] was 4.8, the “PRISMA enrichment of interactor (log2)” value [14] was 4.78 and the “PRISMA enrichment of interactor (log2)” value [15] was 5.31. The “PRISMA enrichment of interactor (log2)” value [16] was 5.3.

For MNGLTTGRPALLQML [RP11-12K22.1], the “PRISMA enrichment of interactor (log2)” value [17] was 5.7, the “PRISMA enrichment of interactor (log2)” value [18] was 6.9 and the “PRISMA enrichment of interactor (log2)” value [19] was 5.51. The “PRISMA enrichment of interactor (log2)” value [20] was 4.35, the “PRISMA enrichment of interactor (log2)” value [21] was 6.48 and the “PRISMA enrichment of interactor (log2)” value [22] was 6.19. For the same binder, the “PRISMA enrichment of interactor (log2)” value [23] was 6.13, the “PRISMA enrichment of interactor (log2)” value [24] was 5.72 and the “PRISMA enrichment of interactor (log2)” value [25] was 7.45. The “PRISMA enrichment of interactor (log2)” value [26] was 4.89, the “PRISMA enrichment of interactor (log2)” value [27] was 5.03 and the “PRISMA enrichment of interactor (log2)” value [28] was 6.37. The “PRISMA enrichment of interactor (log2)” value [29] was 7.8, the “PRISMA enrichment of interactor (log2)” value [30] was 8.45 and the “PRISMA enrichment of interactor (log2)” value [31] was 10.6. For the same binder, the “PRISMA enrichment of interactor (log2)” value [32] was 5.13, the “PRISMA enrichment of interactor (log2)” value [33] was 4.5 and the “PRISMA enrichment of interactor (log2)” value [34] was 5.7. The “PRISMA enrichment of interactor (log2)” value [35] was 4.6, the “PRISMA enrichment of interactor (log2)” value [36] was 5.38 and the “PRISMA enrichment of interactor (log2)” value [37] was 3.86. For the same binder, the “PRISMA enrichment of interactor (log2)” value [38] was 7.67, the “PRISMA enrichment of interactor (log2)” value [39] was 4.69 and the “PRISMA enrichment of interactor (log2)” value [40] was 6.36.

ECSLGRRASTCSPGP [SNHG8] was tested, and the “PRISMA enrichment of interactor (log2)” value [41] was 4.76, the “PRISMA enrichment of interactor (log2)” value [42] was 6.45 and the “PRISMA enrichment of interactor (log2)” value [43] was 4.63. For the same binder, the “PRISMA enrichment of interactor (log2)” value [44] was 6.59, the “PRISMA enrichment of interactor (log2)” value [45] was 5.1 and the “PRISMA enrichment of interactor (log2)” value [46] was 4.74. The “PRISMA enrichment of interactor (log2)” value [47] was 4.68, the “PRISMA enrichment of interactor (log2)” value [48] was 5.73 and the “PRISMA enrichment of interactor (log2)” value [49] was 6.4. For the same binder, the “PRISMA enrichment of interactor (log2)” value [50] was 11 and the “PRISMA enrichment of interactor (log2)” value [51] was 5.05.
